# Several values for one entry are separate records, joined by “and”; a condition that tells them apart may be missing. Equal entries are not always repeated. Structures can show the parent of a compound that is named as a salt. ± gives the standard deviation of the averaged measurements. The list shows a part of the results. Part of the spread comes from offsets between plates or batches.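 Primary human stellate myofibroblasts activated in culture; inactivation shown by regained lipid droplets. Readout: fraction of Hoechst-counted cells exceeding a per-plate Bodipy threshold, duplicate wells, each plate with DMSO negative and nortriptyline positive controls. Hits: control-normalized score beyond the plate's top-tenth-percentile nortriptyline wells, or among its three best wells. Final well concentrations unstated.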
# Tested on: primary human hepatic stellate cells (donor 1)
# Assay: percent Bodipy-positive cells; higher = more lipid droplet accumulation
# Details: 48 h
# [1] = library stock concentration: 1 mM
# [2] = library stock concentration: 10 mM
# [3] = library stock concentration: 400 uM
# [4] = library stock concentration: 2 mM
# [5] = library stock concentration: 3.33 mM
# [6] = library stock concentration: 80 uM
smiles,measurement,setting,value
O=C(/C=C/c1ccc(/C=C/C(=O)Nc2ccc(C3=NCCN3)cc2)cc1)Nc1ccc(C2=NCCN2)cc1 [GW 4869 (hydrochloride hydrate)],percent Bodipy-positive cells,[1],31 ± 7.1%
CC(C)N(CCCNC(=O)Nc1ccc(C(C)(C)C)cc1)C[C@H]1O[C@@H](n2cc(Br)c3c(N)ncnc32)[C@H](O)[C@@H]1O,percent Bodipy-positive cells,[2],99.42 ± 0.17%
CC(C)(O)c1cc2nc(-c3cnc(N)nc3)nc(N3CCOCC3)c2s1,percent Bodipy-positive cells,[3],12.7 ± 1.8%
same,percent Bodipy-positive cells,[4],9.319 ± 0.038%
same,percent Bodipy-positive cells,[2],12.1 ± 0.72%
CNC1(C)C2CCC(C2)C1(C)C (stereo unspecified) [Mecamylamine HCl],percent Bodipy-positive cells,library stock concentration: 12 mM,10.5 ± 7.3%
CNC1(C)C2CCC(C2)C1(C)C (stereo unspecified) [Mecamylamine hydrochloride],percent Bodipy-positive cells,,14.8 ± 3.4%
same,percent Bodipy-positive cells,[2],64.8 ± 3.5%
NC(=O)C1(N2CCCCC2)CCN(CCCC(=O)c2ccc(F)cc2)CC1,percent Bodipy-positive cells,[2],24.4 ± 4.9%
O=C(NCc1ccc(Oc2ccccc2)cc1)c1nc(-c2cc(Br)c(O)c(Br)c2)no1,percent Bodipy-positive cells,[5],22.5 ± 1.2%
same,percent Bodipy-positive cells,[2],36.6 ± 9.2%
CCCCCCCCCCCCCCCC[N+](C)(C)C [Cetrimonium Bromide (CTAB)],percent Bodipy-positive cells,[5],28.2 ± 8.4%
same,percent Bodipy-positive cells,[2],99.44 ± 0.79%
CCCCCCCCCCCCCCCC[N+](C)(C)C [Cetrimonium bromide],percent Bodipy-positive cells,[2],99.78 ± 0.31%
Cc1c(Cn2c(C)nc3c(C(=O)O)cc(N4CCOCC4)cc32)cccc1C(F)(F)F,percent Bodipy-positive cells,[6],4.94 ± 0.15%
same,percent Bodipy-positive cells,[3],5.88 ± 0.38%
same,percent Bodipy-positive cells,[4],5.31 ± 1.6%
same,percent Bodipy-positive cells,[5],25.4 ± 4.5%
same,percent Bodipy-positive cells,[2],15.1% and 3.51%
C[C@@]1(O)[C@H](O)[C@@H](CO)O[C@H]1n1cnc2c(NC3CCCC3)nc(Cl)nc21,percent Bodipy-positive cells,[2],5.42 ± 1%
CC(C)c1onc(-c2c(Cl)cccc2Cl)c1COc1ccc(/C=C/c2cccc(C(=O)O)c2)c(Cl)c1,percent Bodipy-positive cells,[5],5.96 ± 0.48%
same,percent Bodipy-positive cells,[2],6.38% and 5.7%
Nc1nc(Nc2ccc(S(N)(=O)=O)cc2)nn1C(=O)c1c(F)cccc1F,percent Bodipy-positive cells,[3],18.3 ± 2.6%
same,percent Bodipy-positive cells,[4],23.3 ± 4.1%
same,percent Bodipy-positive cells,[5],44.5 ± 4.5%
same,percent Bodipy-positive cells,[2],61% and 54.5%
CCCCCC=CCC=CCC=CCCCCCCC(=O)OC [Dihomo-.gamma.-Linolenic Acid methyl ester],percent Bodipy-positive cells,[1],16.2 ± 5%
CC1CCN=C(N)C1 (stereo unspecified) [2-Imino-4-methylpiperidine (acetate)],percent Bodipy-positive cells,[1],7.54 ± 0.43%
C=CCN1CCCC1CNC(=O)c1cc2nn[nH]c2cc1OC (stereo unspecified) [Alizapride HCl],percent Bodipy-positive cells,,40.4 ± 16%
same,percent Bodipy-positive cells,[5],13.6 ± 3.9%
same,percent Bodipy-positive cells,[2],32.8 ± 10%
Cc1[nH]c(/C=C2\C(=O)Nc3ccc(S(=O)(=O)Cc4c(Cl)cccc4Cl)cc32)c(C)c1C(=O)N1CCC[C@@H]1CN1CCCC1,percent Bodipy-positive cells,[5],100%
same,percent Bodipy-positive cells,[2],100%
COc1ccc(CNCc2cccc3ccccc23)cc1,percent Bodipy-positive cells,[5],14.7 ± 1.4%
same,percent Bodipy-positive cells,[2],70.9 ± 10%
O=C(O)CCC/C=C\C[C@@H]1[C@@H](/C=C/[C@H](O)C2Cc3ccccc3C2)[C@@H](F)C[C@@H]1O,percent Bodipy-positive cells,[2],49.3 ± 14%
NC(=O)[C@@H](CCC(F)(F)F)N(Cc1ccc(-c2ncon2)cc1F)S(=O)(=O)c1ccc(Cl)cc1,percent Bodipy-positive cells,[5],9.14 ± 3.1%
same,percent Bodipy-positive cells,[2],25.56 ± 0.16%
CC1=C(C(=O)O)N2C(=O)[C@@H](NC(=O)[C@H](N)c3ccc(O)cc3)[C@H]2SC1 [Cefadroxil],percent Bodipy-positive cells,,26.2 ± 10%
same,percent Bodipy-positive cells,[2],13.3 ± 1%
N#CC(=C(/N)Sc1ccccc1N)/C(C#N)=C(\N)Sc1ccccc1N,percent Bodipy-positive cells,[5],9.2 ± 1.7%
same,percent Bodipy-positive cells,[2],18.1 ± 0.38%
c1ccc2c(-c3cnn4cc(-c5ccc(N6CCNCC6)cc5)cnc34)ccnc2c1,percent Bodipy-positive cells,[6],22.1 ± 0.37%
same,percent Bodipy-positive cells,[3],67.4 ± 45%
same,percent Bodipy-positive cells,[4],94.1 ± 2.5%
same,percent Bodipy-positive cells,[2],73.7 ± 6.7%
CC(C)(Oc1ccc(C2CC2(Cl)Cl)cc1)C(=O)O (stereo unspecified) [Ciprofibrate],percent Bodipy-positive cells,,9.1 ± 2.5%
same,percent Bodipy-positive cells,[5],9.3 ± 6.9%
CN(CCOc1ccc(-c2ccc3c(c2)OCO3)cc1C(C)(C)C)CC(=O)O,percent Bodipy-positive cells,[2],7.47 ± 0.28%
CCCCC[C@H](O)/C=C/[C@@H]1[C@@H](CCCCCCC(=O)O)[C@@H](O)C[C@H]1O [Prostaglandin F1.alpha.],percent Bodipy-positive cells,[1],17.7 ± 3.2%
N[C@@H](CSS(=O)(=O)O)C(=O)O [S-Sulfo-L-cysteine sodium salt],percent Bodipy-positive cells,[2],7.37 ± 2.1%
CNCCCC1c2ccccc2C=Cc2ccccc21.Cl [Protriptyline hydrochloride],percent Bodipy-positive cells,,82.8 ± 8.8%
same,percent Bodipy-positive cells,[2],87.82 ± 0.5%
C#CCCC[C@@H](O)CCCCCCCCCCC(=O)O [12(S)-hydroxy-16-Heptadecynoic Acid],percent Bodipy-positive cells,[1],13.8 ± 2.2%
CCCCCC(O)C=CC1C(O)CC(O)C1CCCCCCC(=O)O (stereo unspecified) [Prostaglandin  F1a],percent Bodipy-positive cells,[1],10.1 ± 6.6%
C#C[C@]1(O)CCC2C3CCC4=CC(=O)CC[C@@H]4C3CC[C@@]21CC (stereo partly specified) [Norgestrel],percent Bodipy-positive cells,library stock concentration: 6.4 mM,70.8 ± 2.6%
CCN(CC)CCCCNc1ncc2c(n1)N(C)C(=O)N(c1c(Cl)c(OC)cc(OC)c1Cl)C2,percent Bodipy-positive cells,[6],15.1 ± 9.8%
same,percent Bodipy-positive cells,[3],11.2 ± 4.1%
same,percent Bodipy-positive cells,[4],18.6 ± 3.5%
same,percent Bodipy-positive cells,[2],52.8 ± 10%
O=c1cc(O)cc(/C=C/c2ccc(O)c(O)c2)o1 [Hispidin],percent Bodipy-positive cells,[2],40.5 ± 3.1%

# Quoted at random: four records from the list.
smiles,measurement,setting,value
CC1=C(C(=O)O)N2C(=O)[C@@H](NC(=O)[C@H](N)c3ccc(O)cc3)[C@H]2SC1 [Cefadroxil],percent Bodipy-positive cells,,26.2 ± 10%
CCCCCC=CCC=CCC=CCCCCCCC(=O)OC [Dihomo-.gamma.-Linolenic Acid methyl ester],percent Bodipy-positive cells,[1],16.2 ± 5%
Cc1c(Cn2c(C)nc3c(C(=O)O)cc(N4CCOCC4)cc32)cccc1C(F)(F)F,percent Bodipy-positive cells,[3],5.88 ± 0.38%
Cc1[nH]c(/C=C2\C(=O)Nc3ccc(S(=O)(=O)Cc4c(Cl)cccc4Cl)cc32)c(C)c1C(=O)N1CCC[C@@H]1CN1CCCC1,percent Bodipy-positive cells,[5],100%

# Source: the supplement of paper PMC9135407
